# These are yes or no findings as the source states them, for the method shown. In cells and extracts the contact can be indirect. Some results given as binding are weak or reduced against the parent protein; the word gives no strength.
# Sequences of proteins named here, by UniProt entry; tags and fusion partners are left off. Residues count along the entry.
# UniProt P17948, residues 27-1338: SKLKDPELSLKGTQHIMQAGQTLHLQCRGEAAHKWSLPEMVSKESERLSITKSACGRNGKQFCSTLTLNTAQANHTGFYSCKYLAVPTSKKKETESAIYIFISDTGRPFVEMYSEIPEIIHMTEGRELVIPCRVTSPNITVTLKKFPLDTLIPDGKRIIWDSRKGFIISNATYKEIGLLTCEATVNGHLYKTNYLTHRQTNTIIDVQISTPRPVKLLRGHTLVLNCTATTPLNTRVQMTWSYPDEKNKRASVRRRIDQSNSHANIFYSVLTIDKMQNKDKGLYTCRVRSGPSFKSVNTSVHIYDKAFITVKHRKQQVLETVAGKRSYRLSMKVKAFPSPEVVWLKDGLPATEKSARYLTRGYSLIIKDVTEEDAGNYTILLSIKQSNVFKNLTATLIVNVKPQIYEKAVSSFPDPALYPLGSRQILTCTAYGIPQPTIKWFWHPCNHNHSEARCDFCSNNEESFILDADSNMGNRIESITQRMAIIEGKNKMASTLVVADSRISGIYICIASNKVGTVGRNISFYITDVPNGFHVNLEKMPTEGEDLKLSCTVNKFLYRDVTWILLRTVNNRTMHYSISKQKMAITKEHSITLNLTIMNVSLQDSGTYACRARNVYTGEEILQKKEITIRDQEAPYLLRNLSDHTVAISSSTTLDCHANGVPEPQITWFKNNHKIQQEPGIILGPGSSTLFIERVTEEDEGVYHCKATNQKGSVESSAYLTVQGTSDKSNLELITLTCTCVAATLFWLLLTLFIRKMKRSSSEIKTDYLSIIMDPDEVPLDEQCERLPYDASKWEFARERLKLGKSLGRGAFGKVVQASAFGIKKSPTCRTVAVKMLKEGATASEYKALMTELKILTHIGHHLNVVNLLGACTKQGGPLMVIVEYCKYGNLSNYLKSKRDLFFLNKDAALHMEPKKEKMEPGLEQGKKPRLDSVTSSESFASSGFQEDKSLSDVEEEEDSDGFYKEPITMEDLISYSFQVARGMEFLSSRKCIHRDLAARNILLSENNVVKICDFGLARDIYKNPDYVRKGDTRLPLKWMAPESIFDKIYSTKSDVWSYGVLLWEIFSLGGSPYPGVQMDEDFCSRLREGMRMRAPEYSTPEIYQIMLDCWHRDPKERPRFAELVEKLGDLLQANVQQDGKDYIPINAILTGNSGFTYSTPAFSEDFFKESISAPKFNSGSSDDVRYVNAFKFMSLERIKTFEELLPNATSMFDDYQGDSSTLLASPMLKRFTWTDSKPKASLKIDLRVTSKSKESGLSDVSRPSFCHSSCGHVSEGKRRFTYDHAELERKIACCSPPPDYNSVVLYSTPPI
# UniProt P11362, residues 22-822: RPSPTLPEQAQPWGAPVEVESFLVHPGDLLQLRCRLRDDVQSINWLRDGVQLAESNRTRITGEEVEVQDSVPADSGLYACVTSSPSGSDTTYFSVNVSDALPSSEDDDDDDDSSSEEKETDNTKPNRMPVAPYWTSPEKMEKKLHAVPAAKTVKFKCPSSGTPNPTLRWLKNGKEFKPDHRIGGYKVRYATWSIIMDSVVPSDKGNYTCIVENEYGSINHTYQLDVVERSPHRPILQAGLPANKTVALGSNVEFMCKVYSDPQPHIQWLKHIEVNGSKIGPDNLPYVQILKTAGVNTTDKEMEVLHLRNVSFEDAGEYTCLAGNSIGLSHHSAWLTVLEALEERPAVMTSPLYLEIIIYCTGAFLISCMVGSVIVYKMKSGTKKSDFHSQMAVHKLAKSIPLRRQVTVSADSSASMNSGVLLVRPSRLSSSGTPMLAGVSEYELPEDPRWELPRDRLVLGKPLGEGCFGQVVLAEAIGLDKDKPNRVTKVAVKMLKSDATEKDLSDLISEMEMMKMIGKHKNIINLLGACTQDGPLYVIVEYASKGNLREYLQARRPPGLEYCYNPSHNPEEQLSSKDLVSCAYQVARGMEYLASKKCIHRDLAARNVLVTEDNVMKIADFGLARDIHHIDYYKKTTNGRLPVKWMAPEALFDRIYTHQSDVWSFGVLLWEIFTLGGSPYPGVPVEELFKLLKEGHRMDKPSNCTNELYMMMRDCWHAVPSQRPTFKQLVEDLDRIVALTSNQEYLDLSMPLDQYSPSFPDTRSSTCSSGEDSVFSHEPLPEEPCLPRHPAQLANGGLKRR
# UniProt P21802, residues 22-821: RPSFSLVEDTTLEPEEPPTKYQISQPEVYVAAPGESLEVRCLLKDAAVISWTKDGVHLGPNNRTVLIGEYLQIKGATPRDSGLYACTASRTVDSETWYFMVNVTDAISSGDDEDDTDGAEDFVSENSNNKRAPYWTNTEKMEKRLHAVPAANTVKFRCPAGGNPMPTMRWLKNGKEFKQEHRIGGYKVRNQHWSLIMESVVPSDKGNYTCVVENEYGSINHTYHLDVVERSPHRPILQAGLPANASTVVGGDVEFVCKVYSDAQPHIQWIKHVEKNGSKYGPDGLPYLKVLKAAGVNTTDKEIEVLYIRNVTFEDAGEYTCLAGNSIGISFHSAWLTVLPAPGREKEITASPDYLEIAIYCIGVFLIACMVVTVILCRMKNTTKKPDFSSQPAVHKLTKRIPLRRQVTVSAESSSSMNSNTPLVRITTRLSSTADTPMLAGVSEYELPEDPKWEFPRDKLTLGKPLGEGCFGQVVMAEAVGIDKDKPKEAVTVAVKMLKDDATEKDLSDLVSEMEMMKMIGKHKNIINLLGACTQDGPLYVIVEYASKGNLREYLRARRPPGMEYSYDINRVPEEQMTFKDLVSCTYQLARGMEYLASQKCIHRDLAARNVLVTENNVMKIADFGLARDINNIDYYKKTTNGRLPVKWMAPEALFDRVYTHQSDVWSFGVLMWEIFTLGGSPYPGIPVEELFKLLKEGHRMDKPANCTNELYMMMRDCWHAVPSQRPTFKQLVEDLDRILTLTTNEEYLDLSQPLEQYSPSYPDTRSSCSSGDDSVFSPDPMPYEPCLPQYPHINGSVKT
# Key:
# [1] = target: VEGFR1 (human (endogenous in GIST T-1R and GIST 430)) (UniProt P17948); experiment: co-IP; GIST 430 whole cell lysate in TEB buffer (50 mM Tris-HCl pH 7.5, 150 mM NaCl, 1% NP-40, 10% glycerol); endogenous VEGFR1 precipitated with anti-VEGFR1 antibody overnight at +4 °C, protein A and G Sepharose beads; blot for FGFR1 or FGFR2
# [2] = target: VEGFR1 (human (endogenous in GIST T-1R and GIST 430)) (UniProt P17948); experiment: co-IP; GIST T-1R whole cell lysate in TEB buffer (50 mM Tris-HCl pH 7.5, 150 mM NaCl, 1% NP-40, 10% glycerol); endogenous VEGFR1 precipitated with anti-VEGFR1 antibody overnight at +4 °C, protein A and G Sepharose beads; blot for FGFR1 or FGFR2
binding [2],Substance,binding [1]
binds,FGFR1 (from UniProt P11362 22-822) (receptor),no binding (condition: in GIST 430 cells)
binds,FGFR2 (from UniProt P21802 22-821) (receptor),no binding (condition: in GIST 430 cells)

# From paper PMC11394061
